In PubChem BioAssay AID2685 (National Center for Advancing Translational Sciences (NCATS), 2010) one finds cell number change and AC50 data, which are given here for 38 compounds.

The test in a line: qHTS Assay for Lipid Storage Modulators in Drosophila S3 Cells.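 For cell number change: cells counted by Cell Tracker Red CMTPX staining in the red channel.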 Particulars: BODIPY lipid droplet fluorescence, 18-24 h; for cell number change: measured here: cell count max response, cells fed with added oleic acid. A digest of the protocol: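 Drosophila S3 cells got compounds at several concentrations plus oleic acid (400 uM solution). Laser-scanning cytometry with 488 nm excitation read lipid droplets at 500-530 nm and cells at 575-640 nm. Percent activity was relative to 20 uM Triacsin C.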

Where [1] appears, read: measured here: lipid fluorescence (Fed channel) AC50, cells fed with added oleic acid.
Where [2] appears, read: measured here: cell number channel AC50, cells fed with added oleic acid.

Some of the results follow. Further columns of the screen follow, without active or inactive calls. Most of these compounds were active or inconclusive in the main read-out, so they are no random draw. Potencies come from curve fits of mixed quality, noted in brackets.

Regarding `CCC(C)c1ccccc1OCCCN(C)Cc1ccccc1` (stereo unspecified), the cell number change was -17.3%. For the same compound, the AC50 (in general, the midpoint of the concentration-response curve, whichever way the signal moves) under setting [1] was 18.4 µM [falling, single point].
Consider `CCC1CCCCN1CCCNC(=O)c1ccc(N2CCOCC2)c(NS(=O)(=O)c2ccc(OC)cc2)c1` (stereo unspecified), for which the cell number change was determined as 18.6%. Further, the half-maximal activity concentration (AC50) under setting [1] is 0.116 µM [rising, full curve, poor fit].
Take `N#Cc1nc(-c2ccco2)oc1NCCCN1CCOCC1`: the cell number change is 3.9%. For the same compound, the AC50 under setting [1] is 0.58 µM [falling, partial curve].
As to `Cn1ncc2c(Nc3ccccc3Cl)nc(Nc3ccccc3Cl)nc21`, the cell number change was -31.7%. Besides, under setting [2], the AC50 was 13 µM [falling, single point]. Moreover, under setting [1], the AC50 is 18.4 µM [falling, single point].
In the case of `Cc1ccc(C)c(S(=O)(=O)N2CCCC2CNC(=O)C(=O)NC2CCCCCC2)c1` (stereo unspecified), the cell number change was -33.2%. For the same compound, the AC50 under setting [2] was 14.6 µM [falling, partial curve]. The AC50 under setting [1] was 6.51 µM [falling, single point].
Regarding `CCOC(=O)N1CCN(C(=O)c2ccc(OC)c(OC)c2)CC1`, the cell number change is -4.29%. Further, the AC50 under setting [1] was 6.51 µM [falling, partial curve, poor fit].
`CCOC(=O)c1[nH]ncc1CN1CCC(Cc2ccccc2)(C(=O)OCC)CC1`: the cell number change stood at 9.94%.
For the compound `O=C(CCc1nc(-c2ccccc2)no1)NCc1cccnc1`, the cell number change turned out to be 27.1%.
Regarding `CCNC(=O)CC1C(=O)N(c2ccccc2)C(=O)N1Cc1ccc(OC)cc1` (stereo unspecified), the cell number change was 1.84%. Moreover, under setting [1], the AC50 is 18.4 µM [falling, partial curve].
Turning to `Cc1ccc2sc(NC(=O)c3cccc(N4C(=O)CCC4=O)c3)nc2c1C`, the cell number change is -30.3%. For the same compound, the AC50 under setting [2] was 2.59 µM [falling, partial curve, poor fit].
With `COc1ccccc1NC(=O)c1c(N=Cc2cccc([N+](=O)[O-])c2)cnn1C`, the cell number change amounted to 18.2%. The AC50 under setting [1] is 0.82 µM [rising, full curve, poor fit].
As for `CCCc1cc(=O)oc2c(C)c(OC(C)C(=O)NCCN3CCOCC3)ccc12` (stereo unspecified), the cell number change came out at 35.3%. The AC50 under setting [2] was 5.17 µM [rising, full curve, poor fit]. Also, the AC50 under setting [1] was 5.17 µM [rising, single point].
`CCOC(=O)c1cnn(-c2nc(SC)nc3sc4c(c23)CCC4)c1N`: the cell number change turned out to be 4.08%. Besides, under setting [1], the half-maximal activity concentration (AC50) is 4.11 µM [rising, full curve].
Consider `CCOc1ccccc1NC(=O)c1ccc(OCC)c([N+](=O)[O-])c1`, for which the cell number change is 20.3%. In addition, the AC50 under setting [1] was 23.1 µM [rising, single point].
Turning to `Cc1nccn1-c1cc(C(C)(C)C)nc2c(-c3ccccc3)cnn12`, the cell number change is -23%. Under setting [1], the AC50 was 0.366 µM [falling, partial curve, poor fit].
`CCc1ccc(-c2nc(CN3CCC(C(=O)N4CCN(c5ccccc5)CC4)CC3)c(C)o2)cc1`: the cell number change was -30.3%. Further, the AC50 under setting [2] was 29.1 µM [falling, single point]. Under setting [1], the concentration at half-maximal activity (AC50) is 29.1 µM [falling, single point].
`CC(=O)C1=C(C)NC(SCc2cccc3ccccc23)=C(C#N)C1c1ccco1` (stereo unspecified): the cell number change turned out to be 2.56%. Besides, under setting [1], the AC50 is 1.64 µM [rising, full curve, poor fit].
Turning to `Cc1ccc(NS(=O)(=O)c2ccc(C(=O)NCCCN3CCCC3=O)cc2)cc1`, the cell number change was -18.2%. Besides, under setting [1], the half-maximal activity concentration (AC50) is 0.731 µM [falling, partial curve].
Turning to `Cn1c(=O)n(C)c2cc(S(=O)(=O)NCCO)ccc21`, the cell number change is 3.31%. Further, under setting [1], the AC50 is 6.51 µM [falling, single point].
Regarding `CCCn1c(=N)c(S(=O)(=O)c2ccccc2)cc2c(=O)n3ccccc3nc21`, the cell number change was -24%.
For `C[C@@H]1CCC[C@@]2(O[C@H](CCO)C[C@@H](O)[C@@H]2O)O1`, the cell number change was -22.6%. Further, under setting [1], the AC50 is 0.731 µM [falling, full curve].
For `CN(C(=O)c1cccc(C(=O)N(C)c2ccccc2)c1)c1ccccc1`, the cell number change is -3.81%. For the same compound, under setting [1], the concentration at half-maximal activity (AC50) was 29.1 µM [rising, single point].
Consider `CCOc1ccc2[nH]c3nc(SCC(=O)NCC4CCCO4)nnc3c2c1` (stereo unspecified), for which the cell number change is -25%.
Take `O=C(NC(=O)N1CCOCC1)c1ccccc1`: the cell number change is 42.5%. Under setting [2], the half-maximal activity concentration (AC50) is 29.1 µM [rising, single point]. In addition, the half-maximal activity concentration (AC50) under setting [1] was 1.16 µM [falling, full curve, poor fit].
Turning to `Cc1ccccc1C(=O)NC(=S)Nc1ncccn1`, the cell number change stood at 8.4%. The AC50 under setting [1] was 29.1 µM [rising, single point].
With `Cc1ccc(S(=O)(=O)N2CCCCC2C(=O)N2CCN(C)CC2)cc1` (stereo unspecified), the cell number change was determined as 8.37%. Also, the concentration at half-maximal activity (AC50) under setting [1] was 6.51 µM [falling, single point].
On to `CCCC(=O)N=c1sc2c(OC)ccc(OC)c2n1C`, for which the concentration at half-maximal activity (AC50) under setting [1] is 1.3 µM [rising, full curve, poor fit].
Consider `Cc1cc(-c2ccccc2C(=O)NCc2ccccc2)on1`, for which the AC50 under setting [2] is 0.326 µM [rising, full curve].
On to `Cc1c(C(=O)OCC(=O)Nc2ccc(S(N)(=O)=O)cc2)oc2c1ccc1ccccc12`, for which the cell number change is -50%. For the same compound, under setting [2], the concentration at half-maximal activity (AC50) is 13 µM [falling, partial curve]. The AC50 under setting [1] was 32.6 µM [falling, partial curve, poor fit].
On to `O=C(CSc1nnnn1-c1ccc2c(c1)CCC2)NCc1cccs1`, for which the cell number change came out at 16.7%.
Consider `O=C(Nc1cccc(S(=O)(=O)N2CCOCC2)c1)c1ccc2ccccc2n1`, for which the cell number change is -20.2%. Moreover, under setting [1], the concentration at half-maximal activity (AC50) was 10.3 µM [falling, partial curve, poor fit].
`COC(=O)c1cc(NC(=O)CC2SCCNC2=O)cc(C(=O)OC)c1` (stereo unspecified): the cell number change worked out at 42.4%. Further, the half-maximal activity concentration (AC50) under setting [2] is 1.46 µM [rising, partial curve, poor fit]. For the same compound, the AC50 under setting [1] is 1.3 µM [rising, full curve].
Take `CCN1CCN(C(=O)Nc2cccc3ccccc23)CC1`: the cell number change came to 49.5%. Besides, under setting [2], the concentration at half-maximal activity (AC50) is 3.66 µM [rising, full curve]. Also, under setting [1], the AC50 was 3.66 µM [falling, full curve, poor fit].
As for `O=C1C=C(NCCNc2c(F)c(F)c(CO)c(F)c2F)CCC1`, the cell number change is -43.9%. Moreover, the AC50 under setting [2] was 29.1 µM [falling, single point]. The half-maximal activity concentration (AC50) under setting [1] was 1.3 µM [falling, partial curve].
For `Cc1cc(C)c2c(C)[nH]nc2n1`, the cell number change is -10.5%. For the same compound, the half-maximal activity concentration (AC50) under setting [1] is 0.0366 µM [falling, full curve].
In the case of `Fc1ccc(Nc2c(-c3ccco3)nc3ccccn23)cc1`, the cell number change is 27.3%.
In the case of `O=C(CCn1cnc2ccccc2c1=O)Nc1ccc2c(c1)OCCO2`, the cell number change is 9.26%. Besides, the half-maximal activity concentration (AC50) under setting [1] was 8.2 µM [rising, partial curve, poor fit].
Regarding `CNS(=O)(=O)c1cc(NC(=O)CCCNC(=O)c2ccc(Cl)cc2)ccc1C`, the cell number change came out at 16.4%.
